# Measurements from PubChem BioAssay AID493014 (National Center for Advancing Translational Sciences (NCATS), 2011).
# About 170 (0.05%) of roughly 340,000 compounds were called active. The shares of active, inactive and inconclusive entries below differ from those in the screen. Calls come from the whole dose curve; as a rule, active = well fitted inhibition curve with a large enough effect in the signal ratio, with a control signal flat (not every such curve was filed as active); inconclusive = small, poorly fitted or top-dose-only effect, or effect the other way, or a change in a side signal; inactive = flat fitted curve, though single readings scatter; the % refers to the signal ratio. Where the call is inconclusive, the potency comes from a doubtful curve fit.
# Assay: qHTS Assay to Find Inhibitors of Chronic Active B-Cell Receptor Signaling;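 for activity change, negative = inhibition: plate controls were basal doxycycline-induced cells for no effect and cells given 10 µM MG132 for full effect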
# Conditions: ABC-DLBCL IkBa-CBG/CBR reporter, luminescence ratio (green luciferase fused to IkBa over red control in TMD8 lymphoma cells), 4 h; activity change, negative = inhibition: at 46.1 µM (top of the series)
# How it was run: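 Compounds up to 46 uM were incubated four hours with TMD8 cells whose green CBG68 luciferase is fused to IkappaBalpha; red CBR luminescence normalised the signal, and concentration-effect curves were fitted to fusion, red and ratio data.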
# Potency is the fitted concentration of half-maximal effect.
SMILES,"activity change, negative = inhibition",Potency
COc1cc(C(C(=O)NCC2CCCO2)N(C(=O)Cn2nnc3ccccc32)c2ccc(OC)c(OC)c2)ccc1O (configuration not stated),inactive: 1.27%,–
CCC1(C)Cc2nc3sc(C(=O)O)c(N)c3cc2CO1 (configuration not stated),inconclusive: -5.38%,–
CC1=NN(c2ccccc2)C(=O)C1(C)C,inconclusive: -1%,–
CCCSc1nc2sc3c(c2c(=O)[nH]1)CC(C)(CC)OC3 (configuration not stated),inconclusive: 6.37%,–
Cc1ccc(C)c(NC(=O)C2C3C=CC(O3)C2C(=O)O)c1 (configuration not stated),inconclusive: -10.4%,–
CC(C)[C@H](NC(=O)c1ccccc1F)C(=O)NC1CCCCCCC1,inactive: -4.25%,–
O=C(NCc1ccccc1)C(Cc1ccccc1)NS(=O)(=O)c1cccc2nsnc12 (configuration not stated),inconclusive: 3.2%,–
O=C(NCC1CCCO1)c1sc(=S)n2c1[nH]c(=O)c1ccc(C(=O)N3CCCCC3)cc12 (configuration not stated),inconclusive: 0.574%,–
CN(C)c1nc(Cl)nc(N(C#N)CCOc2ccccc2)n1,inconclusive: -19.1%,–
CCn1c2ccccc2c2cc(/C=N/NC(=O)c3cc(O)cc(O)c3)ccc21,–,"inconclusive: 35.5 µM [rising, single point]"
O=C(O)CSC(C(=O)Nc1ccc(Br)cc1)c1ccccc1 (configuration not stated),inconclusive: 7.5%,–
O=C(CCCn1c(=S)[nH]c2ccccc2c1=O)N1CCN(c2cccc(Cl)c2)CC1,–,"inconclusive: 0.631 µM [falling, full curve, poor fit]"
CC(=O)Nc1ccc(NC(=O)CCSCCc2ccccn2)cc1,inconclusive: 17.1%,–
COC(=O)c1ccc(COc2ccccc2/C=C(\C#N)C(=O)NC(C)C)cc1,–,"inconclusive: 2.06 µM [falling, full curve]"
O=C(O)c1ccc(-c2ccc(-c3ccccc3)cc2)s1,inconclusive: 267%,–
N#C/C(=C\c1cccnc1)C(=O)Nc1ccc(O)cc1F,inactive: -0.815%,–
N#CCN1CCN(CCC(=O)Nc2ccc(OCc3ccccc3)cc2)CC1,–,"inconclusive: 10.3 µM [rising, partial curve, poor fit]"
CCOc1ccccc1/C=N/Nc1nc(C)cc(=O)[nH]1,inconclusive: -1.59%,–
CCn1c(=O)c2cc(C(=O)NCC(OC)OC)sc2c2ccccc21,inconclusive: 2.34%,–
CNC(=O)C(=O)Nc1nc(C23CC4CC(CC(C4)C2)C3)cs1,inconclusive: 5.05%,–
O=C(Nc1cccc2ccccc12)/C(=C/c1ccc([N+](=O)[O-])cc1)NC(=O)c1ccccc1,inconclusive: -18.5%,–

# Reformatted: entries from further up
SMILES | activity change, negative = inhibition | Potency
CC1=NN(c2ccccc2)C(=O)C1(C)C | inconclusive: -1% | –
CCCSc1nc2sc3c(c2c(=O)[nH]1)CC(C)(CC)OC3 (configuration not stated) | inconclusive: 6.37% | –
Cc1ccc(C)c(NC(=O)C2C3C=CC(O3)C2C(=O)O)c1 (configuration not stated) | inconclusive: -10.4% | –
CC(C)[C@H](NC(=O)c1ccccc1F)C(=O)NC1CCCCCCC1 | inactive: -4.25% | –
O=C(NCc1ccccc1)C(Cc1ccccc1)NS(=O)(=O)c1cccc2nsnc12 (configuration not stated) | inconclusive: 3.2% | –

# The results go on:

SMILES,"activity change, negative = inhibition",Potency
CC1Cc2ccccc2N1C(=O)CSc1nc2c(c(=O)n(C)c(=O)n2C)n1Cc1ccccc1 (configuration not stated),inactive: -0.157%,–
O=C(CS(=O)c1ccc(C(F)(F)F)cc1[N+](=O)[O-])Oc1ccc(Cl)cc1 (configuration not stated),–,"inconclusive: 29.1 µM [falling, single point]"
Cc1ccc(C(=O)OCC(=O)NCc2ccc(F)cc2)o1,inconclusive: -0.0871%,–
CCCn1c(=O)c2c(C(F)(F)F)cc(-c3cccs3)nc2n(CCC)c1=O,inconclusive: 0.0607%,–
Cc1ccc(NS(=O)(=O)c2cc(NC(=O)c3cc4c(s3)CCCC4)ccc2C)c(C)c1,inconclusive: 5.58%,–
CC1CCc2sc(C(=O)OCC(=O)NC(N)=O)cc2C1 (configuration not stated),inconclusive: 1.39%,–
Cc1cc(N)n(-c2nc(-c3cccnc3)nc3ccccc23)n1,inconclusive: 11.5%,–
CC(C)(C)OC(=O)N1CCC[C@H]1c1nnc(SCc2c(F)cccc2Cl)o1,inconclusive: -2.39%,–
COc1ccccc1NS(=O)(=O)c1cccc(N=C2N=C(N)c3ccccc32)c1,inconclusive: -15.6%,–
COc1cc(/C=C2\SC(=S)N(NC(=O)c3cccnc3)C2=O)ccc1O,inconclusive: 22.1%,–
Nc1ccc(-c2nnc(-c3ccccc3)o2)cc1,–,"inconclusive: 31.6 µM [falling, partial curve]"
COc1ccccc1C1=NN(C(=S)Nc2ccccc2)C(c2ccco2)C1 (configuration not stated),–,"inconclusive: 5.62 µM [falling, full curve]"
CC(=O)c1nn(-c2cccc(Br)c2)cc1C(=O)c1ccccc1,inactive: -0.131%,–
Cc1noc(NS(=O)(=O)c2ccc(NC(=O)C(Cl)(Cl)Cl)cc2)c1C,inactive: 0.411%,–
O=C(Cc1cccs1)N/N=C/c1ccc(OCc2ccccc2)cc1,inconclusive: -7.13%,–
Cc1c(C(=O)NC2CCCc3ccccc32)oc2ccccc12 (configuration not stated),inconclusive: 8.09%,–
Cc1[nH]c2ccc3ncccc3c2c1C,inconclusive: -6.3%,–
Nc1c(C(=O)Nc2ccc3c(c2)OCCO3)nnn1CCc1ccccc1,inconclusive: 2.29%,–
O=C(Nc1ccccc1)Nc1snnc1C(=O)Nc1cccc(O)c1,–,"inconclusive: 0.631 µM [rising, full curve, poor fit]"
COc1cccc(C(c2c(C)[nH]n(-c3ccccc3)c2=O)c2c(C)[nH]n(-c3ccccc3)c2=O)c1O,–,"inconclusive: 35.5 µM [falling, partial curve, poor fit]"
Cc1[nH]c2ccccc2c1C(c1ccncc1)N1CCC(C)CC1 (configuration not stated),inconclusive: -11.1%,–

SMILES,"activity change, negative = inhibition",Potency
Cn1c(=O)oc2cc(S(=O)(=O)N3CCN(c4ccccc4F)CC3)ccc21,inconclusive: -4.48%,–
COc1ccccc1N1C(=O)C=C(Sc2nc(C)cc(C)n2)C1=O,–,"inconclusive: 31.6 µM [falling, single point]"
Cc1csc(NC(=O)CSc2nnc(-c3ccccn3)n2-c2ccc(C)c(C)c2)n1,inconclusive: -0.782%,–
Nc1nc(-c2ccccn2)nc(N)c1Cc1c(F)cccc1Cl,–,"inconclusive: 11.2 µM [falling, partial curve]"
COc1cc2[nH]c(=S)nc(Nc3ccc(NC(C)=O)cc3)c2cc1OC,inactive: -6.61%,–
O=C(N/C(=C/c1ccccc1)C(=O)N1CCCCC1)c1ccc(Br)o1,inconclusive: -0.0988%,–
O=C(Cc1ccc(Cl)c(Cl)c1)Nc1cccc(S(=O)(=O)N2CCOCC2)c1,inconclusive: -17.9%,–
Cc1c(C)c2cc(Cl)c(O)c(CN3CCCC(C)C3)c2oc1=O (configuration not stated),inconclusive: 11%,–
CC(NS(C)(=O)=O)C(c1cccs1)N1CCN(c2ccccc2)CC1 (configuration not stated),inactive: -2.85%,–
CC(=O)c1cc2c(cc1NC(=O)C1CC1)OCO2,inconclusive: 15.4%,–
O=C(OCc1ccccc1)C1CCCN1C(=O)c1ccccc1[N+](=O)[O-] (configuration not stated),–,"inconclusive: 5.62 µM [rising, partial curve, poor fit]"
COc1ccc(Cl)cc1NS(=O)(=O)c1cccc2cccnc12,inactive: 2.66%,–
Cc1ccc(OCCC(=O)N(Cc2ccccc2)c2c(N)n(Cc3ccccc3)c(=O)[nH]c2=O)cc1,inconclusive: 1.16%,–
CC1CC2=C(C(=O)O1)C(c1ccc(Cl)cc1)Nc1ccccc1N2 (configuration not stated),inactive: 4.07%,–
CC(c1ccccc1)N1CCn2c(nc3cc(NS(C)(=O)=O)ccc32)C1 (configuration not stated),inconclusive: 6.1%,–
O=C(C(=S)N1CCOCC1)c1c[nH]c2ccccc12,inactive: -0.57%,–
CCNc1nnc(-c2ccccc2OC)s1,inconclusive: -0.411%,–
CC(=O)c1c(C)[nH]c(C(=O)OCc2ccc([N+](=O)[O-])cc2)c1C,inactive: -7.69%,–
Cc1cccc(N2CCN(C(=O)c3ccncc3)CC2C)c1 (configuration not stated),inconclusive: -0.224%,–
CC(C)Cn1c(N)c(C(=O)COC(=O)CC23CC4CC(CC(C4)C2)C3)c(=O)n(C)c1=O,inactive: 4.51%,–
Clc1c2c(nc3ccccc13)CCC2,inactive: 0.383%,–

SMILES,"activity change, negative = inhibition",Potency
Cc1cc(C)c(NC(=O)c2ccc3c(c2)NC(=O)C(C)S3)c(C)c1 (configuration not stated),inconclusive: 10.7%,–
Cc1ccc(/C=N/N(C)S(=O)(=O)c2ccc(C)cc2)cc1,inconclusive: -10.9%,–
Cc1cc(/C=C(\C#N)C(=O)NC2CC2)c(C)[nH]1,–,"inconclusive: 25.9 µM [falling, partial curve]"
COc1ccc(C(=O)c2ccc(Cl)cc2Cl)cc1,inactive: -0.339%,–
O=C1Nc2cc(Cl)c(Cl)cc2N(O)N1c1cc(Cl)cc(Cl)c1,–,"inconclusive: 1.26 µM [falling, full curve, poor fit]"
CCOC(=O)C1(Cc2ccccc2C)CCCN(C(=O)c2sccc2C)C1 (configuration not stated),inactive: -0.0121%,–
O=C(COc1cc2oc(=O)c3c(c2cc1Cl)CCCC3)N1C[C@H]2C[C@@H](C1)c1cccc(=O)n1C2,–,"inconclusive: 31.6 µM [rising, single point]"
CC(C)(C)C(=O)CSc1ncnc2c1cnn2Cc1ccccc1,inconclusive: 0.039%,–
CCOC(=O)[C@H]1[C@H]2COc3ccc(Br)cc3[C@@H]2N2C(=O)c3cc(OC)c(OC)cc3NC(=O)[C@@]12C,inconclusive: -15.2%,–
O=C(CN1CCN(S(=O)(=O)c2ccc(Cl)cc2)CC1)Nc1ccc(F)cc1F,–,"inconclusive: 12.6 µM [falling, partial curve, poor fit]"
N/C(=N\OC(=O)CCC1CCCC1)c1ccc(Cl)cc1,inconclusive: 9.11%,–
COC(=O)c1ccc(CN(c2ccc(C(=O)O)c(O)c2)S(=O)(=O)c2ccc(Cl)c([N+](=O)[O-])c2)cc1,inconclusive: 2.1%,–
C=CCN(c1ccccc1OC)S(=O)(=O)c1cccc(C(=O)Nc2nnc(C3CC3)s2)c1,inconclusive: 11.6%,–
O=C(N/N=C/C=C\c1ccco1)c1cccnc1,–,"inconclusive: 11.2 µM [falling, partial curve, poor fit]"
Cc1ccccc1C(=O)N1CCc2ccccc2C1,inactive: 1.06%,–
COc1ccc(S(=O)(=O)Nc2ncccn2)cc1,inactive: 1.89%,–
Cc1ccnc(NC(=O)c2cccc(S(=O)(=O)Nc3ccc(C)cc3C)c2)c1,inconclusive: -0.352%,–
S=c1[nH]nc(-c2cc3ccccc3o2)n1Cc1ccccc1,inactive: 12.4%,–
CN(Cc1c(F)cccc1Cl)C(=O)C1CC(=O)N(CCc2ccccc2)C1 (configuration not stated),inconclusive: 6.72%,–
